Consider 1 compound from patent publication US20040014676A1, “SRC kinase inhibitors useful for treating osteoporosis” (priority 2001, published 2004).

Protein sequences, listed by entry. Tags and fused reporters are not part of them.
UniProt P12931, whole entry: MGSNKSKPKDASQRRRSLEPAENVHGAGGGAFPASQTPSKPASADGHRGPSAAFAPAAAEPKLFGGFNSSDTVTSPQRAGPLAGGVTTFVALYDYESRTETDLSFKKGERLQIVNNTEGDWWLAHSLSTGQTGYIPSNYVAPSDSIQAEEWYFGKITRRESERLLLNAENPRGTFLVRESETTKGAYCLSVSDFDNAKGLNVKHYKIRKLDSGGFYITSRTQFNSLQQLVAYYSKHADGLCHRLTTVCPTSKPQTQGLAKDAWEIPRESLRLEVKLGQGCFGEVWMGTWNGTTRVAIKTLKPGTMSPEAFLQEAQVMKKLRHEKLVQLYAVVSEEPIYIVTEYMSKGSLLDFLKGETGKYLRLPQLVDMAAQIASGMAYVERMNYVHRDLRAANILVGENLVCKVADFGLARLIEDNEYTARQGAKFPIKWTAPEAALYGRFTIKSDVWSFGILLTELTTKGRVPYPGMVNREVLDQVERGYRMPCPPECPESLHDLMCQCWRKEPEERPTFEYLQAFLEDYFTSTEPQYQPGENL

The structures appear in SMILES notation. The match of structure and compound is tentative.

This experiment concerns the target Src kinase (Homo sapiens, UniProt P12931). Put plainly: Phosphorylation assay of Src kinase inhibitors (radiometric, 96 well filter plate). In kind it is biochemical. Particulars: duplicates, tested in the range of 400-0.098 µM; 10 µM peptide substrate (FIYGAFKKKKNH2), 5 µM unlabeled ATP, room temperature 30 min. The method, then:
The present invention provides novel compounds of Formulae I through XVIII discussed above. The following compounds which fall within Formulae I through XVIII are characterized by structure, IUPAC name and activity using phosphorylation assay for protein tyrosine Src kinase.
Phosphorylation Assay of Src Kinase Inhibitors
The activity of Src kinase was measured in a 96 well plate phosphorylation assay where the transfer of gamma phosphate from ATP to peptide substrate was measured radiometrically. The percentage inhibition and IC50 values were calculated from duplicates of samples tested in the range of 400-0.098 M (2 or 4 fold dilutions). Ki values were determined experimentally for some of the inhibitors. The phosphocellulose filter plates (Millipore catalog #MAPH NOB) were prewet prior to the phosphorylation assay by addition of 100 1 per well of 30 mM MES buffer+0.4 mg/ml BSA. After a 20-minute incubation, the buffer was removed completely via a Millipore vacuum manifold. The phosphorylation assay was then set up in the filter plates in a total volume per well of 60 1. […] Finally, the filter plate was placed into a Packard plate adapter (Packard catalog #600517B), 35 1 of Microscint-20 (Packard catalog #6013621) was added to each well, the plate was sealed (TopSeal A sealers; Packard catalog #6005185) and counted on a Packard TopCount.

Consider `N#Cc1ccc(C[C@H](N)C(=O)NCCCCOc2cc3ccccc3cc2C(=O)NCC(N)=O)cc1`, for which the IC50 amounted to 3 µM.
